ChEMBL document CHEMBL5724796, “Tm Shift (DSF) assay results for EUbOPEN Chemogenomics Library” (2024)
Several values for one entry are separate records, joined by “and”; a condition that tells them apart may be missing. Equal entries are not always repeated. For part of these data: What follows is the remainder of the data, with few or none of the highest values. For part of these data: Shown are results outside the selection of lowest values, which stands elsewhere.

Chains of the proteins cited; added tags and fusions are not shown. Lines headed by an entry give the natural chain unless they say otherwise; changes in a name come on top.
UniProt P00519, whole entry: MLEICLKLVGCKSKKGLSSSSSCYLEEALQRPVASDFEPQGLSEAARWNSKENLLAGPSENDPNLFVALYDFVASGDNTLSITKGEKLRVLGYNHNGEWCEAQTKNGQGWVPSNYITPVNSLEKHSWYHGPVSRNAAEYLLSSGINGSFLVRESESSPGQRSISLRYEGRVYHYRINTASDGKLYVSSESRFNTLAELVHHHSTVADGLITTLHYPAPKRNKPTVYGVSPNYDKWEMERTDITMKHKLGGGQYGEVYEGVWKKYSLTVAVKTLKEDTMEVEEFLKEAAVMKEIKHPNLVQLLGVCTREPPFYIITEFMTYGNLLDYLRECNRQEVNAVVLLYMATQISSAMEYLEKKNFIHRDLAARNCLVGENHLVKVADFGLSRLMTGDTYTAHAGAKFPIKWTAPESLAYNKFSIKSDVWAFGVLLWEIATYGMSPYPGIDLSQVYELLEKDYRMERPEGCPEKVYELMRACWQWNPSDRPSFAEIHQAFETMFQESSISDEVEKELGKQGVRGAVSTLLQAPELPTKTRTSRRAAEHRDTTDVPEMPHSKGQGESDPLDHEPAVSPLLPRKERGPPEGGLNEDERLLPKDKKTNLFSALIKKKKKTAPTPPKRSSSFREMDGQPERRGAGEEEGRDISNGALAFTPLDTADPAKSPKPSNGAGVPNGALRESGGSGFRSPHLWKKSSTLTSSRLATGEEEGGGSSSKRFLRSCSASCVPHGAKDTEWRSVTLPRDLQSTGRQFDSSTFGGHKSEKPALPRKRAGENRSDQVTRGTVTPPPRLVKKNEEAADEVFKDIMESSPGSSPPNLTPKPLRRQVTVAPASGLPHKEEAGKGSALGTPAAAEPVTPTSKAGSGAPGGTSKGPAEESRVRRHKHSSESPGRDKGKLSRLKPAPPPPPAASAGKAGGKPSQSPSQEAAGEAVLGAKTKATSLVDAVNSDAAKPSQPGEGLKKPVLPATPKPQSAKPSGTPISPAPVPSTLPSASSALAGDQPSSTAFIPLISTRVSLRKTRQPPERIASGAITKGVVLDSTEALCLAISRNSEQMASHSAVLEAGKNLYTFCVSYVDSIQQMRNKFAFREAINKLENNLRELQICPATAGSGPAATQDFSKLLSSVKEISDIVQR
UniProt P48730: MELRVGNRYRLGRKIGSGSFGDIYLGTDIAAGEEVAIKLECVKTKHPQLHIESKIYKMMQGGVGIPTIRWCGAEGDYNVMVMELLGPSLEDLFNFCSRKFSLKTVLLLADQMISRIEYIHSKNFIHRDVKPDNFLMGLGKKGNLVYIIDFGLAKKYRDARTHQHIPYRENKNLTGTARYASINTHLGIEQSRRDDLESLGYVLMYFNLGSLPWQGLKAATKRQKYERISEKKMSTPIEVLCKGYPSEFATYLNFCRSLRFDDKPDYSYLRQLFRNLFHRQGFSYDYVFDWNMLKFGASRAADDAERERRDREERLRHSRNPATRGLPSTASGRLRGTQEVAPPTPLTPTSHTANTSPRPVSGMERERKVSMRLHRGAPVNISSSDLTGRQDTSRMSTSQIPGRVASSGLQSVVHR
UniProt P49841: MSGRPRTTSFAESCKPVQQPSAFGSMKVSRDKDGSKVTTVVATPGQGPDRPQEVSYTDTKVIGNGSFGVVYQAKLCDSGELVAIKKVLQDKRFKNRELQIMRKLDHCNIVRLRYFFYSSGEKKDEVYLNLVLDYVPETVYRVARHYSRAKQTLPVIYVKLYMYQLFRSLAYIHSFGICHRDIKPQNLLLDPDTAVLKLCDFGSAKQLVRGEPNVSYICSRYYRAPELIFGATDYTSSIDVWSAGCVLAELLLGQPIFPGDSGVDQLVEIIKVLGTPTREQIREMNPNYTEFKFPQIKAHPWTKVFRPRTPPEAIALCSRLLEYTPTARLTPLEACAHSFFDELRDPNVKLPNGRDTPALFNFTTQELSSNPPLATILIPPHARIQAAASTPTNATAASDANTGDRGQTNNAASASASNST
UniProt P28482, whole entry: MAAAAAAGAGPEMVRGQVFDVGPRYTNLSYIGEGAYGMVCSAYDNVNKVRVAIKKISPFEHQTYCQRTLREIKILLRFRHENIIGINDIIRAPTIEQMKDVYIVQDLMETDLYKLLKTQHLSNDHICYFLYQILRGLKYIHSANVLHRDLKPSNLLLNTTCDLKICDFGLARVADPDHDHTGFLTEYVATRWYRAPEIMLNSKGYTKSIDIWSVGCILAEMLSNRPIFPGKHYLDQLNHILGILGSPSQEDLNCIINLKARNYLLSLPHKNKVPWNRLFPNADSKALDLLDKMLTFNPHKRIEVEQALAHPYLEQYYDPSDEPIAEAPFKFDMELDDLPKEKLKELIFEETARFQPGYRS

How the values were obtained:
Conditions in all cases: Compound concentration 20.0 uM
[1] = molecular target: Tyrosine-protein kinase ABL1 (Homo sapiens) (UniProt P00519)
[2] = molecular target: Bromodomain-containing protein 4 (Homo sapiens) (UniProt O60885)
[3] = molecular target: Cyclin-dependent kinase 2 (Homo sapiens) (UniProt P24941)
[4] = molecular target: Casein kinase I isoform delta (Homo sapiens) (UniProt P48730)
[5] = molecular target: Glycogen synthase kinase-3 beta (Homo sapiens) (UniProt P49841)
[6] = molecular target: Mitogen-activated protein kinase 1 (Homo sapiens) (UniProt P28482)
[7] = molecular target: T1, Aurora kinase A (Homo sapiens) (UniProt O14965)
T1 sequence (whole entry): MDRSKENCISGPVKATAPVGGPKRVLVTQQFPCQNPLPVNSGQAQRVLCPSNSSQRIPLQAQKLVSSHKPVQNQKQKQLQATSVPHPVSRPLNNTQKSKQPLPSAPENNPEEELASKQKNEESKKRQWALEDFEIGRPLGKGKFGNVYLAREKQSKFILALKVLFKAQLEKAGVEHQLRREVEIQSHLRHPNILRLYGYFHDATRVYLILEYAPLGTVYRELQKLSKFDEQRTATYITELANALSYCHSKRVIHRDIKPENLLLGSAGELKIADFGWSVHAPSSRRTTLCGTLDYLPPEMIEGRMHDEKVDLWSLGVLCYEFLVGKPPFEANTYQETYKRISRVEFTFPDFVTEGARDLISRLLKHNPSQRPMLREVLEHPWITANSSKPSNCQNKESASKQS

[8] = molecular target: T2, Transcription intermediary factor 1-alpha (Homo sapiens) (UniProt O15164)
T2 sequence (whole entry): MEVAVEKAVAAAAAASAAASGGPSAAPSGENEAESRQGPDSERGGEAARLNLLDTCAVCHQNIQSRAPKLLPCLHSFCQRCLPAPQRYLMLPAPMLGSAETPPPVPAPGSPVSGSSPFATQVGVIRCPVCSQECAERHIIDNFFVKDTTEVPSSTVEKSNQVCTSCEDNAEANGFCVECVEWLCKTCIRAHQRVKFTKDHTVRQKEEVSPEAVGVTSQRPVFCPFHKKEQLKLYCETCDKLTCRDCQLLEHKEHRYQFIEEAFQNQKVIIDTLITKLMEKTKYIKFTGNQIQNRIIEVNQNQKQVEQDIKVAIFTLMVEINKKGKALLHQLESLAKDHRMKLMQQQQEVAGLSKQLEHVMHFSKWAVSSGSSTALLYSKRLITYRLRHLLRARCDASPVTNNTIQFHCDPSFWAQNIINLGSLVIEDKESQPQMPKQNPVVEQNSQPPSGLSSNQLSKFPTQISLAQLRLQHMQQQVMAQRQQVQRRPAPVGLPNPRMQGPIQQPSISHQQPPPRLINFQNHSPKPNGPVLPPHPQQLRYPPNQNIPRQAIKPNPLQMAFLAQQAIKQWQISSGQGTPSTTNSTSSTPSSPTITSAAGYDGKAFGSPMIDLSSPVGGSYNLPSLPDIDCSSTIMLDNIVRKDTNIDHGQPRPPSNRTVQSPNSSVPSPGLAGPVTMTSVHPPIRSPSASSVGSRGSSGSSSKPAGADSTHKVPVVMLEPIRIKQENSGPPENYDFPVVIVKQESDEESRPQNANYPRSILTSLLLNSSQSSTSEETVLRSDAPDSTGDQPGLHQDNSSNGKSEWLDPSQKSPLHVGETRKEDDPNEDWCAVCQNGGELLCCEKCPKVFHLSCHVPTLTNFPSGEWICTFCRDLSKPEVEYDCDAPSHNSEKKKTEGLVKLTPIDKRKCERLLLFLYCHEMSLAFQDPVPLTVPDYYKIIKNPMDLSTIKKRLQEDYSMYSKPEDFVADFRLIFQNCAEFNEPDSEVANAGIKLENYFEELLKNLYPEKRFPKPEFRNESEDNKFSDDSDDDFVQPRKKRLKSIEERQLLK

Row | SMILES | ΔTm [1] | ΔTm [2] | ΔTm [3] | ΔTm [4] | ΔTm [5] | ΔTm [6] | ΔTm [7] | ΔTm [8]
1 | COC[C@@H](NC(=O)N1CC(=O)Nc2cc(OC)cnc21)c1ccc(OC(F)(F)F)c(F)c1 | 0.59 °C | -3.58 °C | 0.3 °C | -0.92 °C | -1.86 °C | -0.07 °C | -1.99 °C | 0.66 °C
2 | CNC(=O)c1ccc(-c2cc3cccc(-c4nn(C5CCOCC5)c5c4CN(C(C)=O)CC5)c3cn2)cn1 | -0.18 °C | 1.5 °C | 0.34 °C | 0.16 °C | -1.61 °C | -0.23 °C | -0.41 °C | -1.27 °C
3 | Cc1ccc(C(=O)NCCCCCC(=O)Nc2ccccc2N)cc1 | 0.46 °C and 0.22 °C | -1.41 °C and -1.71 °C | 0.28 °C and -0.1 °C | 0.2 °C and 0.24 °C | -0.11 °C and -0.27 °C | -0.44 °C and 0.15 °C | -0.42 °C and -0.94 °C | -0.6 °C and -0.7 °C
